We go through 40 molecules from PubChem BioAssay AID493014 (National Center for Advancing Translational Sciences (NCATS), 2011).

This is one part of the list. Shown are side measurements of this screen, not its main read-out; they come without a call. Most of these compounds were active or inconclusive in the main read-out, so they are no random draw. Potencies come from curve fits of mixed quality, noted in brackets.

This assay in a line: qHTS Assay to Find Inhibitors of Chronic Active B-Cell Receptor Signaling. The note with it: ABC-DLBCL IkBa-CBG/CBR reporter, luminescence ratio (green luciferase fused to IkBa over red control in TMD8 lymphoma cells), 4 h; measured here: CBR red luminescence, cell number. The gist of the method: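 TMD8 human ABC-DLBCL cells with doxycycline-inducible IκBα–green luciferase fusion and unfused red luciferase, in 0.5% FBS medium; compounds up to 46 uM, 4 h at 37C. Green/red luminescence ratio, filter-overlap corrected, fitted to concentration-response curves.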
Regarding `COc1cccc(CNCCc2c[nH]c3ccccc23)c1OCc1ccccc1F`, the AC50 was 10 µM [falling, partial curve, poor fit].
The value for `CC1CCC(N2CCN(C(=O)COc3ccccc3)CC2)CC1` (stereo not given) was 35.5 µM [rising, single point]; that for `COc1ccc(OC)c(C(c2c(O)c3ccccc3oc2=O)c2c(C)n(C)n(-c3ccccc3)c2=O)c1` (stereo not given) was 1.41 µM [falling, full curve]; that for `CCCCNC(=O)c1c(N)n(CCCOC)c2nc3ccccc3nc12` was 23.1 µM [falling, single point].
Regarding `Cc1cnc(-n2c(=S)[nH]c3ccccc3c2=O)s1`, the AC50 is 13 µM [rising, partial curve, poor fit].
For `CC(C)[C@@]1(NC(=O)[C@@H]2C[C@@H]3c4cccc5[nH]cc(c45)C[C@H]3N(C)C2)O[C@@]2(O)[C@@H]3CCCN3C(=O)[C@H](Cc3ccccc3)N2C1=O`, the AC50 is 20 µM [falling, single point].
For the molecule `O=C1CN=C(c2cccc(Br)c2)c2cc(Br)ccc2N1`, the AC50 is 0.1 µM [rising, full curve, poor fit].
The value for `O=c1[nH]c(=S)[nH]c(O)c1N=Nc1ccc2c(c1)OCCO2` was 3.16 µM [falling, full curve]; that for `Cn1c(/C=C/c2ccc(Cl)cc2)c([N+](=O)[O-])c(=O)n(C)c1=O` was 17.8 µM [falling, partial curve, poor fit].
For the molecule `COc1ccc2[nH]c3c(c2c1)CCN=C3C`, the AC50 is 9.2 µM [falling, partial curve, poor fit].
Take `Cc1c(C(=O)N2CCC3(CC2)OCCO3)oc2ccccc12`: the AC50 was 7.31 µM [rising, partial curve, poor fit].
`Cc1c(N=Cc2c(O)n(CCc3ccc(F)cc3)c(=O)[nH]c2=O)c(=O)n(-c2ccccc2)n1C`: the AC50 was 29.1 µM [falling, single point].
As for `COC(=O)C1=C(c2ccc(F)cc2OCc2ccccc2)C[C@@H]2CC[C@H]1N2C(=O)NC1CCN(Cc2ccccc2)CC1`, the AC50 was 29.1 µM [falling, single point].
Turning to `CCOc1ccc(C2C(C#N)=C(N)Oc3c2c(=O)oc2ccccc32)cc1` (stereo not given), the AC50 was 1.26 µM [falling, full curve, poor fit].
Turning to `CCN(CC)c1ccc(CNCCc2ccc(F)cc2)cc1`, the AC50 was 35.5 µM [falling, single point].
Next, `C/C(=N\NC(=O)c1ccccc1)c1c(O)n(Cc2ccccc2)c(=O)[nH]c1=O`: 7.94 µM [falling, partial curve].
Next, `Clc1cc(Cl)cc(NC2=NCCS2)c1`: 5.62 µM [rising, single point]; `CC(=NCCCN1CCCCC1)c1c(O)n(Cc2ccccc2)c(=O)[nH]c1=O`: 29.1 µM [falling, single point].
Regarding `CC(C)C(=O)Nc1nnc(CCN(CCc2nnc(NC(=O)C(C)C)s2)[N+](=O)[O-])s1`, the AC50 was 0.501 µM [rising, full curve, poor fit].
As to `CCN(CC)C(=O)c1ccc(NC(=O)C2=C(C)OCCS2)cc1`, the AC50 is 3.98 µM [rising, single point].
Next, `Cc1nc2ccc(Cl)cc2c(=O)n1-c1cccc(Cl)c1`: 7.08 µM [rising, full curve, poor fit]; `CCC12C=CCN3CCC4(c5cc(Br)c(OC)cc5N(C)C4C(O)(C(=O)OC)C1OC(C)=O)C32` (stereo not given): 12.6 µM [falling, single point]; `COc1cc2c(cc1OC)C(/C=C/c1ccco1)=NCC2`: 35.5 µM [falling, partial curve, poor fit].
For the molecule `O=C(C[N+]12CCC(CC1)C(C(O)(c1ccccc1)c1ccccc1)C2)c1ccc(Br)cc1` (stereo not given), the AC50 is 35.5 µM [falling, single point].
As for `O=c1cc(-c2ccc(Cl)cc2)oc(=O)[nH]1`, the AC50 is 2.82 µM [rising, partial curve, poor fit].
With `C[C@]12CCC3C(CC[C@H]4C[C@@H](O)CC[C@]34C)[C@H]1CC[C@H]2O` (stereo not given in full), the AC50 is 32.6 µM [rising, partial curve, poor fit].
Take `CCN1CCN(C(=O)Cc2coc3ccc4ccccc4c23)CC1`: the AC50 was 6.51 µM [falling, single point].
As to `Cn1c(O)c(C=NCCOc2ccc(Cl)cc2)c(=O)n(C)c1=O`, the AC50 is 14.1 µM [falling, single point].
Next, `Cc1ccc(-n2c(O)c(C=NCc3ccco3)c(=O)[nH]c2=S)cc1C`: 2.24 µM [rising, partial curve, poor fit]; `COc1ccc(Cn2c(O)c(/C=N/NC(=O)c3ccccc3)c(=O)[nH]c2=O)cc1`: 5.8 µM [falling, partial curve]; `CCCCn1c(=O)c(C(=O)Nc2ccsc2C(=O)OC)c(O)c2ccccc21`: 10.3 µM [falling, partial curve].
In the case of `c1ccc2c(N3CCNCC3)nsc2c1`, the AC50 was 0.891 µM [rising, full curve, poor fit].
Turning to `Nc1ccccc1C#CC(=O)c1ccccc1`, the AC50 is 10 µM [falling, partial curve].
For the molecule `CC(=NCCc1ccccc1)c1c(O)n(C)c(=O)n(C)c1=O`, the AC50 is 3.16 µM [falling, full curve, poor fit].
For `CSc1ccc(/C=C/c2nc3ccccc3c(=O)n2-c2cccc(Cl)c2C)cc1`, the AC50 was 35.5 µM [rising, single point].
`O=S(=O)(c1ccc(O)cc1)c1ccc(O)cc1`: the AC50 is 35.5 µM [rising, single point].
`Oc1ccccc1-[n+]1c(-c2ccccc2)cc(-c2ccccc2)cc1-c1ccccc1`: the AC50 is 25.9 µM [falling, partial curve].
The value for `CC/C(=N\NC(=O)c1ccccc1O)c1c(O)n(C2CCCCC2)c(=O)[nH]c1=O` was 3.98 µM [falling, full curve]; that for `C[C@]12CC[C@H]3[C@@H](CCC4=CC(=O)CC[C@@]43O)[C@@H]1CCC2=O` was 3.55 µM [rising, full curve].
For `COC(=O)C1=C(c2ccc(OCc3ccccc3)cc2)C[C@@H]2CC[C@H]1N2C(=O)NCc1cccc(OC)c1`, the AC50 was 16.4 µM [falling, single point].
